Measured data: PubChem BioAssay AID686943 (Drosophila RNAi Screening Center, 2013)
Assay: 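Search across the genome for regulators of signalling from receptor tyrosine kinase to ERK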 (primary screen). Cell system: Drosophila S2R+ haemocyte-like cells expressing YFP-tagged ERK (Rolled). Knock-down reagent: long dsRNA against Drosophila genes. Treatment: insulin stimulation versus unstimulated cells; dose and duration not given. Measured: 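Per-plate z-scores of phospho-ERK immunostaining normalised to YFP-tagged ERK, measured with and without insulin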. Direction: replicate 1, z-score of dpERK with insulin and replicate 2, z-score of dpERK with insulin: higher = more active ERK per ERK-YFP after insulin; replicate 1, z-score of dpERK under basal conditions: higher = more basal active ERK per ERK-YFP.
The deposit covers about 23,000 reagents; shown is an unselected part of those with a known target gene and a result. 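Extra replicates exist only for a retested subset of genes; insulin dose and duration not given; both raised and lowered dpERK matter.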 The numbers tell different reagents against one gene apart. A plus sign joins genes that one reagent is predicted to hit. Further read-outs or replicates are left out here. Reagent sequences are not shown. Not stated in the record: the amount of reagent, the time to read-out.

no.	Target gene	dsRNA no.	replicate 1, z-score of dpERK with insulin	replicate 2, z-score of dpERK with insulin	replicate 1, z-score of dpERK under basal conditions
1	Cks30A	1	0.06	-0.09	-0.06
2	Hsp83	1	1.68	1.88	0.74
3	wrapper	1	0.14	-3.03	0.19
4	CG43736	1	-0.62	0.15	-0.32
5	CG43736	2	1.21	0.16	-0.52
6	CG10700	1	0.52	0.69	-0.48
7	CG11099	1	0.6	0	-1.06
8	MME1	1	-0.74	-0.14	-0.23
9	CG31205	1	-0.37	2.12	1.03
10	AstA	1	0.33	0.12	-1.07
11	CG3246	1	0.15	0.92	0.14
12	Ns4	1	0.63	0.78	0.08
13	Cyp4d21	1	0.98	-0.04	0.19
14	CG14120	1	0.09	-0.77	0.01
15	cdm	1	1.53	1.3	1.32
16	CG33459	1	0.28	-0.06	0.21
17	Cib2	1	0.04	-1.22	-1.19
18	obst-B	1	0.1	0.43	0.92
19	CG3306	1	0.05	0.55	-1.27

The list goes on; the last 6 above are carried over.
no.	Target gene	dsRNA no.	replicate 1, z-score of dpERK with insulin	replicate 2, z-score of dpERK with insulin	replicate 1, z-score of dpERK under basal conditions
14	CG14120	1	0.09	-0.77	0.01
15	cdm	1	1.53	1.3	1.32
16	CG33459	1	0.28	-0.06	0.21
17	Cib2	1	0.04	-1.22	-1.19
18	obst-B	1	0.1	0.43	0.92
19	CG3306	1	0.05	0.55	-1.27
20	qkr58E-1	1	2	2.08	-1.11
21	CG13738	1	-3.09	-2.21	0.48
22	CG17147	1	0.18	-0.26	0.39
23	CG30356	1	-0.21	0.06	-0.69
24	eIF4E5	1	-0.07	0.03	-0.96
25	CG13067	1	-0.52	-0.49	0.02
26	CG7322	1	0.04	-0.21	-0.5
27	CG5880	1	-0.47	-0.92	0.77
28	psh	1	-0.87	-0.77	0.12
29	TfIIB	1	2.28	3.09	-0.16
30	CG7924	1	0.53	0.06	0.62
31	CG13197	1	-1.22	0.7	-0.11
32	RhoGDI	1	0.32	1.1	0.49
33	Zmynd8	1	0.37	-0.44	0.65
34	Jwa	1	-0.13	0.86	-0.58
35	snoRNA:Me28S-C3420b + RpS11	1	0.08	-0.41	0.39
36	CG30467	1	-0.05	0.99	0.96
37	CycJ	1	0.08	0.35	0.25
38	hubl	1	0.89	-0.09	0.05
39	CG15525	1	0.48	2.44	-1.38
40	eIF3c	1	-1.3	-0.6	-3.63
41	Pur-alpha	1	0.34	0.41	-0.28
42	CG13049	1	0.29	1.54	0.69
43	l(3)72Dr	1	-0.07	-0.38	0.29
44	CG16953	1	-0.01	-0.67	-0.75
45	CG9682	1	-0.15	-0.59	-0.15
46	CG34283	1	-0.17	1	1.89
47	tra	1	0.52	0.63	0.63
48	MESR4	1	-1.15	-0.07	-1.32
49	Sema2b	1	0.48	0.37	0.16
50	Sema2b	2	0.35	0.07	-1.1
51	Sema2b	3	-0.61	0.23	0.03
52	Hpf1	1	-0.14	0.27	-0.21
53	CG43316	1	-0.06	0.22	-0.07
54	CG9673	1	-0.4	0.32	-0.42
55	LUBEL	1	-0.02	-0.47	0.43
56	mas	1	1.05	-0.37	-0.3
57	Leash	1	1	0.31	0.55
